Several values for one entry are separate records, joined by “and”; a condition that tells them apart may be missing. Equal values may be shown once. This is one part of the list. Further columns of the screen follow, without active or inactive calls. Compounds called inactive in the main read-out are mostly missing here. Potencies come from curve fits of mixed quality, noted in brackets.

This test is described as follows: qHTS Assay for Lipid Storage Modulators in Drosophila S3 Cells.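 For cell number change: cells counted by Cell Tracker Red CMTPX staining in the red channel.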 The settings on record: BODIPY lipid droplet fluorescence, 18-24 h; for cell number change: measured here: cell count max response, cells fed with added oleic acid. In short, it runs like this: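 Drosophila S3 cells got compounds at several concentrations plus oleic acid (400 uM solution). Laser-scanning cytometry with 488 nm excitation read lipid droplets at 500-530 nm and cells at 575-640 nm. Percent activity was relative to 20 uM Triacsin C.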
On the technique in general: In qHTS, concentration-response curves come from the screen itself.

The mark [1] stands for this setting: measured here: lipid fluorescence (Fed channel) AC50, cells fed with added oleic acid.
Setting [2] is: measured here: cell number channel AC50, cells fed with added oleic acid.

For orientation: AC50 means the concentration giving half of the maximal activity seen. Higher therefore signals activity only at high concentration. Take `N#Cc1nc(-c2ccc(OCc3ccccc3Cl)cc2)oc1NCCCn1ccnc1`: the cell number change was -23.9%. Moreover, the AC50 under setting [1] was 0.116 µM [rising, full curve, poor fit]. Consider `Cc1nnc(SCC(=O)NC2CCCCC2)n(N)c1=O`, for which the cell number change was determined as 38.1%. For the same compound, the AC50 under setting [2] is 9.2 µM [rising, partial curve]. Consider `CCOC(=O)C1CCN(Cc2ccc(OCc3ccccc3)cc2)CC1`, for which the cell number change is -7.37%. Turning to `Cc1ccc(C)c(S(=O)(=O)N2CCN(C(=O)Cn3c(C(F)(F)F)nc4ccccc43)CC2)c1`, the half-maximal activity concentration (AC50) under setting [1] was 2.59 µM [rising, partial curve]. On to `COc1cc([N+](=O)[O-])ccc1NC(=O)Cc1ccc(F)cc1`, for which the AC50 is, setting by setting: under setting [2], 1.46 µM [rising, partial curve]; under setting [1], 0.116 µM [rising, full curve, poor fit]. Turning to `Cc1ccc(NC(=O)CSc2nnc(Cc3cccn3C)n2-c2ccc(F)cc2)cc1`, the cell number change amounted to 8.63%. Also, the concentration at half-maximal activity (AC50) under setting [1] was 0.146 µM [rising, full curve, poor fit]. For `Cc1ccc(S(=O)(=O)N2[C@@H](c3ccccc3)C(C(=O)O)=CC[C@H]2c2ccc3c(c2)OCO3)cc1`, the cell number change is -19.7%.

With `Nn1cc(-c2ccccc2)nc1SCC(=O)N1CCN(S(=O)(=O)c2ccc3ccccc3c2)CC1`, under setting [2], the AC50 was 0.82 µM [rising, partial curve, poor fit]. In the case of `COc1ccc(Nc2cc(C)nc3ccccc23)cc1`, the cell number change came to 1.98%. Further, the AC50 under setting [1] is 16.4 µM [falling, partial curve, poor fit]. Regarding `COc1ccc(N2C(=O)C3CCCN3C2c2cc(OC)c(OC)cc2OC)cc1` (stereo not given), the cell number change amounted to 2.03%. On the same count and under the same terms, then `CC1CC(C)CN(C(=O)CCNC(=O)Cn2cnc3ccccc3c2=O)C1` (stereo not given), with -1.25%. In the case of `C/C(=N\NC(=O)c1ccn(C)n1)c1ccc(NC(=O)c2cccc(F)c2)cc1`, the cell number change is -6.39%. In addition, under setting [1], the AC50 is 0.00517 µM [rising, full curve, poor fit]. Turning to `Cc1ccc(C(=O)N2CCCCC2C(=O)O)o1` (stereo not given), the cell number change is -8.01%. Further, the AC50 under setting [1] was 0.82 µM [falling, full curve]. As for `COCC(C)NC(=O)c1noc2c1CCc1cc(OC)ccc1-2` (stereo not given), the cell number change worked out at 4.99%. For the same compound, the AC50 under setting [1] was 0.82 µM [rising, partial curve]. As for `CS(=O)(=O)N(CC(=O)NC1CC1)C1CCCCC1`, the cell number change was -2.04%. For the same compound, the AC50 under setting [1] is 0.00411 µM [rising, full curve, poor fit]. For `COc1cc(C(=O)OCC(=O)N2CCCC2)cc2c1OCCO2`, the cell number change amounted to 2.67%. Moreover, the AC50 under setting [1] is 20.6 µM [rising, single point]. Consider `COc1cccc(CCNC(=O)CCc2nnc(Cc3cc(OC)ccc3OC)o2)c1`, for which the cell number change is -12%. Further, the AC50 under setting [1] was 14.6 µM [falling, single point].

Turning to `CC(OC(=O)Cc1coc2cc3c(cc12)CCC3)C(=O)NCc1ccc2c(c1)OCO2` (stereo not given), the cell number change stood at 43.2%. In addition, the AC50 under setting [2] was 5.8 µM [rising, full curve]. Besides, the AC50 under setting [1] is 6.51 µM [rising, partial curve, poor fit].

As for `Nc1nonc1C(=Nc1ccccc1)NO`, the cell number change is -1.49%. Moreover, the AC50 under setting [1] is 25.9 µM [falling, single point]. For the compound `CCOC(=O)N1CCN(CC(=O)Nc2c(C(=O)OC)[nH]c3cccc(Cl)c23)CC1`, under setting [1], the AC50 was 1.46 µM [falling, partial curve, poor fit]. In the case of `CN(C)S(=O)(=O)NC(c1ccccc1)c1ccccc1`, the cell number change worked out at 7.88%. Also, the AC50 under setting [2] is 0.517 µM [falling, full curve]. Further, the AC50 under setting [1] is 0.731 µM [falling, full curve]. As for `Cc1cc(C)c(NC(=O)COc2cccnc2[N+](=O)[O-])c(C)c1`, the cell number change worked out at 9.22%.

On to `O=C1c2ccccc2C(=O)C1c1ccncc1`, for which the cell number change was -21.9%. Also, the AC50 under setting [1] was 2.59 µM [rising, full curve]. As for `COc1ccc(CCNCC(=O)N2C(C)CCCC2C)cc1OC` (stereo not given), the AC50 under setting [2] was 0.651 µM [rising, partial curve, poor fit]. With `COc1cccc(SCc2noc(C(=O)NC(C)C)c2C(=O)NC(C)C)c1`, the cell number change is -0.528%. Besides, the AC50 under setting [2] was 6.51 µM [falling, single point]. Further, the half-maximal activity concentration (AC50) under setting [1] was 3.66 µM [falling, full curve, poor fit].

Regarding `COc1cc(C(=O)NCCOc2ccc(C)c(C)c2)cc(OC)c1OC`, the cell number change was -4.01%.

For the compound `CCc1ccc2nc(N(CCCN(C)C)C(=O)c3ccc4c(c3)OCCO4)sc2c1`, the cell number change was -31.4%.

As for `O=C(CCCOc1ccc(Cl)cc1)NC1CCCCC1`, the cell number change is -15.3%. In the case of `Cc1nn(C(=O)c2ccc([N+](=O)[O-])cc2)c(C)c1Br`, the cell number change is -2.71%. In addition, the AC50 under setting [1] is 0.0259 µM [falling, full curve, poor fit].

Take `Cc1c(Cl)cccc1NC(=O)CCN1CCCCC1`: the cell number change turned out to be 52.7%. On the same count and under the same terms, to `O=C(NC1CCC1)C1CCC(=O)N(Cc2ccccc2F)C1` (stereo not given) belongs 11.6%. Take `NC(=O)c1c(NC(=O)CCCC(=O)O)sc2c1CCCCCC2`: the cell number change was 15%. Moreover, under setting [1], the AC50 is 1.46 µM [rising, full curve, poor fit]. Take `O=[N+]([O-])c1ccc(S(=O)(=O)Nc2ccc(-c3csc(-c4ccccc4)n3)cc2)cc1`: the cell number change is -58.8%. For the same compound, the AC50 under setting [2] was 29.1 µM [falling, single point]. On to `CC(C)(C)c1ccc(OCC(=O)O)cc1`, for which the cell number change is 20.8% and -3.85%. The AC50 under setting [1] is 2.59 µM [falling, partial curve, poor fit]. As to `Cc1cccc(/C=C/C(=O)c2cc(Br)ccc(=O)c2O)c1`, the cell number change is -18.8%. On to `NC(Cc1ccc(O)cc1)c1cn([C@@H](CCC(=O)O)C(=O)N2CCNCC2)nn1` (stereo not given in full), for which the cell number change was -32.5%. Also, the AC50 under setting [1] was 18.4 µM [falling, single point]. For `COC(=O)c1ccc(S(=O)(=O)NNC(=O)COc2ccc(C)cc2)cc1`, the cell number change was -10.1%. The AC50 under setting [1] was 0.146 µM [falling, full curve, poor fit].

In the case of `Cc1ccc(-c2cc3onc(-c4ccccc4)c3c(=O)n2C)cc1`, the cell number change was -2.24%. Turning to `CN(CC(=O)Nc1ccccc1C(F)(F)F)C(=O)c1ccccc1Sc1ccccc1C#N`, the cell number change was -3.67%. For the same compound, the AC50 under setting [1] was 6.51 µM [falling, single point]. `CC(NS(=O)(=O)c1ccccc1)C(c1cccs1)N1CCOCC1` (stereo not given): the cell number change was -12.8%. Also, the AC50 under setting [2] was 3.66 µM [falling, partial curve, poor fit]. Also, the AC50 under setting [1] was 0.00461 µM [falling, full curve, poor fit]. `COc1ccc(CCn2ccc(O)c(Cc3ccc(Cl)cc3)c2=O)cc1OC`: the cell number change was -73.9%. Under setting [2], the half-maximal activity concentration (AC50) was 2.59 µM [falling, full curve]. Moreover, under setting [1], the half-maximal activity concentration (AC50) is 0.517 µM [falling, full curve]. With `Cn1c(=O)c2ncn(CC(=O)O)c2n(C)c1=O`, the cell number change was -45%. Further, under setting [2], the concentration at half-maximal activity (AC50) is 20.6 µM [falling, single point]. Further, the AC50 under setting [1] was 29.1 µM [falling, single point]. With `CN1CCC(N(C)C(=O)c2ccc(Cl)c(S(=O)(=O)Nc3cc(Cl)ccc3Cl)c2)CC1`, the cell number change was -59.6%. Under setting [2], the AC50 is 0.58 µM [falling, full curve]. Under setting [1], the concentration at half-maximal activity (AC50) was 0.92 µM [falling, full curve].

With `CC(C)CCNC(=O)CN(Cc1ccco1)C(=O)CCC(=O)Nc1nccs1`, the cell number change is -31%. In addition, under setting [2], the AC50 is 0.206 µM [falling, full curve, poor fit]. With `O=C(CSc1nnc(Cc2cccs2)n1Cc1ccco1)Nc1cc(Cl)cc(Cl)c1`, the cell number change was -33.8%. Under setting [1], the AC50 was 25.9 µM [falling, single point]. Consider `COc1ccc(NC(=O)NNC(=O)c2ccc(Cl)cc2Cl)cc1OC`, for which the cell number change was determined as 12.4%. Further, the AC50 under setting [2] was 0.0731 µM [rising, full curve, poor fit]. The AC50 under setting [1] is 0.184 µM [rising, full curve, poor fit].

Consider `O=C(CNc1cccc(Cl)c1)NNC(=S)NCc1ccccc1`, for which the cell number change was -2.24%. The AC50 under setting [2] is 6.51 µM [rising, single point]. Also, under setting [1], the concentration at half-maximal activity (AC50) is 6.51 µM [rising, single point]. As to `Cc1ccc(C(C(=O)NCC2CCCO2)N(Cc2ccccc2F)C(=O)Cn2nnc(-c3cccs3)n2)cc1` (stereo not given), the cell number change is 76.3%. Besides, the AC50 under setting [2] was 16.4 µM [rising, partial curve]. As for `COc1ccc(N2C(=S)NC3N2C(=S)NC3(C)c2ccccc2)cc1` (stereo not given), the cell number change was -12.3%. Turning to `CC1(C)CC(=O)C/C(=N/NC(=O)COc2ccc3ccccc3c2Br)C1`, the cell number change stood at 28.4%. Further, the AC50 under setting [1] was 29.1 µM [rising, single point]. For the compound `CN1CCN(C(c2ccc(Br)cc2)c2cc(Cl)c3cccnc3c2O)CC1` (stereo not given), under setting [1], the concentration at half-maximal activity (AC50) is 18.4 µM [falling, partial curve]. Turning to `CN(C)c1ccc(/C=C/c2nc3ccccc3c(=O)n2-c2ccc(C(=O)O)cc2)cc1`, the cell number change was -85.6%. Moreover, under setting [2], the AC50 is 29.1 µM [falling, single point]. Moreover, the AC50 under setting [1] was 25.9 µM [falling, single point]. For the compound `CCOc1ccc(C2SCC(=O)N2c2c(C)n(C)n(-c3ccccc3)c2=O)cc1` (stereo not given), the cell number change was determined as 6.6%. The AC50 under setting [1] was 6.51 µM [falling, single point]. As for `COCCSc1ccccc1C(=O)Nc1ccc2c(c1)OCCO2`, the cell number change was 33.8%. Besides, the AC50 under setting [2] was 11.6 µM [rising, single point]. Moreover, under setting [1], the AC50 is 6.51 µM [rising, single point].

As for `COc1cccc2cc(C(=O)NCCc3ccccc3)oc12`, the cell number change was 27%.

As to `O=C1c2ccccc2-c2onc3ccc(Oc4ccccc4)c1c23`, the cell number change is -81.1%. For the same compound, the AC50 under setting [2] is 13 µM [falling, partial curve]. Further, the half-maximal activity concentration (AC50) under setting [1] is 9.2 µM [falling, partial curve]. On to `NC(=O)C1CCN(c2ccc(S(=O)(=O)N3CCC(Cc4ccccc4)CC3)cn2)CC1`, for which the AC50 is, setting by setting: under setting [2], 0.00461 µM [falling, full curve, poor fit]; under setting [1], 0.13 µM [falling, full curve]. With `N#C/C(C(=O)NCc1ccccc1)=C1/SC(Cc2ccc(Cl)cc2)C(=O)N1c1ccccc1` (stereo not given), the cell number change was determined as 18.4%. Besides, under setting [1], the AC50 is 9.2 µM [rising, partial curve]. On to `Cc1ccccc1-c1nnc(SCC#N)o1`, for which the AC50 under setting [1] is 0.0146 µM [rising, full curve, poor fit].

For the compound `CC1(C)NC(=O)N(CC(=O)N2CCN(S(=O)(=O)c3ccccc3F)CC2)C1=O`, the cell number change is -11.5%. Besides, the AC50 under setting [1] was 6.51 µM [falling, single point]. In the case of `O=C(Nc1ccccn1)c1ccc(Cl)c(S(=O)(=O)N2CCc3ccccc32)c1`, the cell number change is -34.1%. The AC50 under setting [2] is 4.61 µM [falling, full curve, poor fit]. The concentration at half-maximal activity (AC50) under setting [1] was 0.651 µM [rising, full curve].
